Measurements taken from article PMC4381072, “Short antisense-locked nucleic acids (all-LNAs) correct alternative splicing abnormalities in myotonic dystrophy”.
The exact form of at least one protein or probe is not confirmed. A negative result means that nothing was seen under these conditions. At least one verdict rests on a figure or table, not on a statement of the authors. Protein sequences can lack the tags named with them.

Biological target: T1, MBNL1 (isoform encoded by exons 1-4) (UniProt Q9NR56)
T1 sequence (looked up, limits assumed): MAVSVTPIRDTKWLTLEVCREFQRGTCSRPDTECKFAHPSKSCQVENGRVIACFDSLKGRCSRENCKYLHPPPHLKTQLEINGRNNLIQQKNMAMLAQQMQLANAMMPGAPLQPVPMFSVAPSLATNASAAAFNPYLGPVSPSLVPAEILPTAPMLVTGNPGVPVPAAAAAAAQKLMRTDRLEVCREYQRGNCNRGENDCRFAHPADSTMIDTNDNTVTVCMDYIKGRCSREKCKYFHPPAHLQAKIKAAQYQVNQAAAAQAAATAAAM
Assay: filter binding
Conditions: 0-500 nM MBNL1, 0.2 nM oligomer, named in Methods, Results say tested control oligomers did not bind; all 2'-O-methyl, phosphodiester; FBA: FBB (50 mM Tris-HCl pH 8.0, 1 mM MgCl2, 0.05% Tween 20) with 250 mM NaCl and 15 mM KCl, 37 C, 30 min, 30 ul; recombinant protein; protein details: N-terminal GST, C-terminal His6; label: radiolabeled; synthetic backbone

CAGCAGCAGCAGCAGCAGCAG [PO-2'OMe-CAG-21]
binding result: no binding
